Data from patent US9127075B2, “Analgesic active peptide VGG, preparation and use thereof” (priority 2010, dated 2015).

Test system: mouse twisting model induced by acetic acid
Conditions: in vivo
Protocol: 1. In Vivo Analgesic Activity in Mouse Twisting Model Induced by Acetic Acid.
In mouse twisting model: The glacial acetic acid as the chemical irritant is injected into the mouse stomach, which causes a deep and large area and lasting pain stimulus for animal which has a “twist body” reaction, such as abdominal cove, torso and legs spread out, hip high up.
Equal numbers of male and female mice, whose weight were about […], were divided into groups by random. Each group consisted of eight mice. 0.2 ml/20 g of 0.6% (v/v) of acetic acid, which caused visceral pain, was intraperitoneally injected after the test sample was injected into the stomach of mouse for 20 minutes. The writhing times of the mouse were recorded for 10 min after the acetic acid was injected for 5 min. […] The inhibition of writhing response inhibition for each test group was calculated by the following formula: […]

CN1CC[C@]23c4c5ccc(O)c4O[C@H]2[C@@H](O)C=C[C@H]3[C@H]1C5 [morphine, reference compound] was tested, and the inhibition of writhing was 35.75% and the “writhing times (Mean±SEM)” value (ip) was 29.12±1.76.
